According to PubChem BioAssay AID190 (DTP/NCI, 2004):
The list is a part of this screen's results and no random one: its compounds were picked by chemical class. Not every dose and run of a compound is shown. T/C is the treated group as % of the vehicle group. Where survival is the endpoint, the PubChem record calls one and a half times the control and up active, and a quarter to a half above the control has no call in these data; cut-offs in other NCI protocols can differ. Some T/C values are marked as having no survivor count here; that says nothing about deaths at the dose. Schedules are NCI's codes, taken here to give the interval after Q, in days (D) or hours (H), and the number of doses after X. Some doses were run more than once; their values stand side by side, smallest first.

Tested on: AKR/Lw mice, AKR lymphoma ip, median survival T/C
Assay: NCI In Vivo Anticancer Drug Screen. Data for tumor model Lymphoma AKR (Transplanted) (intraperitoneal) in AKR/Lw mice
Conditions: T/C endpoint: median survival time, higher T/C = longer survival
Procedure: The antitumor activity of compounds was measured in mice bearing transplantable tumors. Survival or tumor size were measured and the results are expressed as the measurement made in the treated group (T) divided by the measurement made in the vehicle treated control group (C). The tumor model used in this assay is Lymphoma AKR (Transplanted) (intraperitoneal) in AKR/Lw mice

Structure (SMILES): CN(CCCl)CCCl
- T/C (dose: 0.02 mg/kg/injection, schedule: Q01DX009 (ip), vehicle: saline): 125 % of control [survivor count not shown]
- T/C (dose: 0.05 mg/kg/injection, schedule: Q01DX001 (ip), vehicle: saline): 102 % of control [survivor count not shown]
- T/C (dose: 0.05 mg/kg/injection, schedule: Q04DX003 (ip), vehicle: saline): 96 [survivor count not shown] and 102 % of control [survivor count not shown]
- T/C (dose: 0.06 mg/kg/injection, schedule: Q01DX001 (ip), vehicle: saline): 105 % of control [survivor count not shown]
- T/C (dose: 0.1 mg/kg/injection, schedule: Q01DX001 (ip), vehicle: saline): 119 % of control [survivor count not shown]
- T/C (dose: 0.1 mg/kg/injection, schedule: Q04DX003 (ip), vehicle: saline): 120 % of control [survivor count not shown]
- T/C (dose: 0.12 mg/kg/injection, schedule: Q01DX001 (ip), vehicle: saline): 91 [survivor count not shown], 100 [survivor count not shown], 107 [survivor count not shown], 116 % of control [survivor count not shown]
- T/C (dose: 0.2 mg/kg/injection, schedule: Q01DX001 (ip), vehicle: saline): 108 % of control [survivor count not shown]
- T/C (dose: 0.2 mg/kg/injection, schedule: Q04DX003 (ip), vehicle: saline): 114 % of control [survivor count not shown]
- T/C (dose: 0.25 mg/kg/injection, schedule: Q01DX001 (ip), vehicle: Klucel (hydroxypropylcellulose) (HPC)): 102 % of control [survivor count not shown]
- T/C (dose: 0.25 mg/kg/injection, schedule: Q01DX001 (ip), vehicle: saline): 88 [survivor count not shown], 102 [survivor count not shown], 110 [survivor count not shown], 111 [survivor count not shown], 138 % of control [survivor count not shown]
- T/C (dose: 0.25 mg/kg/injection, schedule: Q01DX009 (ip), vehicle: saline): 105 [survivor count not shown] and 113 % of control [survivor count not shown]
- T/C (dose: 0.25 mg/kg/injection, schedule: Q04DX003 (ip), vehicle: saline): 92 [survivor count not shown], 100 [survivor count not shown], 109 [survivor count not shown], 146 % of control [survivor count not shown]
- T/C (dose: 0.35 mg/kg/injection, schedule: Q01DX001 (ip), vehicle: Klucel (hydroxypropylcellulose) (HPC)): 105 % of control [survivor count not shown]
- T/C (dose: 0.5 mg/kg/injection, schedule: Q01DX001 (ip), vehicle: Klucel (hydroxypropylcellulose) (HPC)): 115 % of control [survivor count not shown]
- T/C (dose: 0.5 mg/kg/injection, schedule: Q01DX001 (ip), vehicle: saline): 88 [survivor count not shown], 100 [survivor count not shown], 104 [survivor count not shown], 107 [survivor count not shown], 118 [survivor count not shown], 130 % of control [survivor count not shown]
- T/C (dose: 0.5 mg/kg/injection, schedule: Q01DX009 (ip), vehicle: saline): 93 [survivor count not shown] and 147 % of control [survivor count not shown]
- T/C (dose: 0.5 mg/kg/injection, schedule: Q04DX003 (ip), vehicle: saline): 88 [survivor count not shown], 89 [survivor count not shown], 111 % of control [survivor count not shown]
- T/C (dose: 0.75 mg/kg/injection, schedule: Q01DX001 (ip), vehicle: Klucel (hydroxypropylcellulose) (HPC)): 120 % of control [survivor count not shown]
- T/C (dose: 0.75 mg/kg/injection, schedule: Q01DX001 (ip), vehicle: saline): 116 % of control [survivor count not shown]
- T/C (dose: 1.0 mg/kg/injection, schedule: Q01DX001 (ip), vehicle: saline): 88 [survivor count not shown], 94 [survivor count not shown], 102 [survivor count not shown], 104 [survivor count not shown], 114 [survivor count not shown], 121 % of control [survivor count not shown]
- T/C (dose: 1.0 mg/kg/injection, schedule: Q01DX009 (ip), vehicle: saline): 93 [survivor count not shown] and 94 % of control [survivor count not shown]
- T/C (dose: 1.0 mg/kg/injection, schedule: Q04DX003 (ip), vehicle: saline): 86 [survivor count not shown] and 169 % of control [survivor count not shown]
- T/C (dose: 1.5 mg/kg/injection, schedule: Q01DX001 (ip), vehicle: saline): 113 [survivor count not shown] and 115 % of control [survivor count not shown]
- T/C (dose: 2.0 mg/kg/injection, schedule: Q01DX001 (ip), vehicle: saline): 100 [survivor count not shown], 112 [survivor count not shown], 117 % of control [survivor count not shown]
- T/C (dose: 2.0 mg/kg/injection, schedule: Q04DX003 (ip), vehicle: saline): 165 % of control [survivor count not shown]
- T/C (dose: 3.0 mg/kg/injection, schedule: Q01DX001 (ip), vehicle: saline): 111 [survivor count not shown] and 131 % of control [survivor count not shown]
- T/C (dose: 4.0 mg/kg/injection, schedule: Q01DX001 (ip), vehicle: saline): 95 [survivor count not shown] and 121 % of control [survivor count not shown]
- T/C (dose: 0.1 micrograms/kg/injection, schedule: Q01DX009 (ip), vehicle: saline): 105 % of control [survivor count not shown]
- T/C (dose: 0.2 micrograms/kg/injection, schedule: Q01DX009 (ip), vehicle: saline): 117 % of control [survivor count not shown]
- T/C (dose: 0.5 micrograms/kg/injection, schedule: Q01DX009 (ip), vehicle: saline): 92 % of control [survivor count not shown]
- T/C (dose: 2.5 micrograms/kg/injection, schedule: Q01DX009 (ip), vehicle: saline): 105 % of control [survivor count not shown]
- T/C (dose: 5.0 micrograms/kg/injection, schedule: Q01DX009 (ip), vehicle: saline): 91 % of control [survivor count not shown]
- T/C (dose: 6.0 micrograms/kg/injection, schedule: Q01DX009 (ip), vehicle: saline): 115 [survivor count not shown] and 121 % of control [survivor count not shown]
- T/C (dose: 10.0 micrograms/kg/injection, schedule: Q01DX009 (ip), vehicle: saline): 94 % of control [survivor count not shown]
- T/C (dose: 12.0 micrograms/kg/injection, schedule: Q01DX009 (ip), vehicle: saline): 103 [survivor count not shown], 105 [survivor count not shown], 123 % of control [survivor count not shown]
- T/C (dose: 12.5 micrograms/kg/injection, schedule: Q04DX003 (ip), vehicle: saline): 90 [survivor count not shown] and 97 % of control [survivor count not shown]
- T/C (dose: 25.0 micrograms/kg/injection, schedule: Q01DX009 (ip), vehicle: saline): 100 [survivor count not shown], 105 [survivor count not shown], 121 % of control [survivor count not shown]
- T/C (dose: 25.0 micrograms/kg/injection, schedule: Q04DX003 (ip), vehicle: saline): 87 [survivor count not shown], 103 [survivor count not shown], 107 % of control [survivor count not shown]
- T/C (dose: 50.0 micrograms/kg/injection, schedule: Q04DX003 (ip), vehicle: saline): 94 [survivor count not shown], 116 [survivor count not shown], 159 % of control [survivor count not shown]
- T/C (dose: 100.0 micrograms/kg/injection, schedule: Q01DX009 (ip), vehicle: saline): 100 [survivor count not shown] and 119 % of control [survivor count not shown]
- T/C (dose: 100.0 micrograms/kg/injection, schedule: Q04DX003 (ip), vehicle: saline): 89 [survivor count not shown] and 107 % of control [survivor count not shown]
